No constants are given. Whether binding was seen depends on the method and setting. In cells and extracts the contact can be indirect. Some results given as binding are weak or reduced against the parent protein; the word gives no strength.
Target: V-ATPase subunit V1A (human (endogenous in HeLa)) (UniProt P38606)
Assay: co-IP; V1A antibody (IgG as control) with HeLa cell lysate (RIPA buffer, 1% NP-40, 0.25% deoxycholate), Dynabeads Protein G, 4 C; blots for V0a1, V1A and GAPDH; cells treated with 0.1% DMSO or TSN 100 nM for 12 h

Protein sequences, listed by entry. Tags and fused reporters are not part of them. Lines headed by an entry give the natural chain unless they say otherwise; changes in a name come on top.
UniProt P38606: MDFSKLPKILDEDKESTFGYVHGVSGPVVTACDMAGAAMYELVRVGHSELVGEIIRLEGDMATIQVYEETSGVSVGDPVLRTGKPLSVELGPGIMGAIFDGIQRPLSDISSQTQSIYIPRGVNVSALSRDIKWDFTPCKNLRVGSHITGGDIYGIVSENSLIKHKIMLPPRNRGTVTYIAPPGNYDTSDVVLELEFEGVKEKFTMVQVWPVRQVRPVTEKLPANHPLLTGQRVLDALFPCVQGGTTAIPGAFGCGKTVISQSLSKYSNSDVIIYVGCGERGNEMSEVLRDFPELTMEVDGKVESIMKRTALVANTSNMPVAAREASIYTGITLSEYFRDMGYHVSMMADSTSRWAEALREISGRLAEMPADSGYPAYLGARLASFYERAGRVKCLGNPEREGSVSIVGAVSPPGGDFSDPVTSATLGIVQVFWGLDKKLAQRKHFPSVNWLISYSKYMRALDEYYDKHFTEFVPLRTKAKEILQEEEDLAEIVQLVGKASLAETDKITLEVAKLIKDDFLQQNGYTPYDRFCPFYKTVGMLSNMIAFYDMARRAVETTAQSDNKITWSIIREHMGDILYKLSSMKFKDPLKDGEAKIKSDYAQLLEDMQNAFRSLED
UniProt Q93050: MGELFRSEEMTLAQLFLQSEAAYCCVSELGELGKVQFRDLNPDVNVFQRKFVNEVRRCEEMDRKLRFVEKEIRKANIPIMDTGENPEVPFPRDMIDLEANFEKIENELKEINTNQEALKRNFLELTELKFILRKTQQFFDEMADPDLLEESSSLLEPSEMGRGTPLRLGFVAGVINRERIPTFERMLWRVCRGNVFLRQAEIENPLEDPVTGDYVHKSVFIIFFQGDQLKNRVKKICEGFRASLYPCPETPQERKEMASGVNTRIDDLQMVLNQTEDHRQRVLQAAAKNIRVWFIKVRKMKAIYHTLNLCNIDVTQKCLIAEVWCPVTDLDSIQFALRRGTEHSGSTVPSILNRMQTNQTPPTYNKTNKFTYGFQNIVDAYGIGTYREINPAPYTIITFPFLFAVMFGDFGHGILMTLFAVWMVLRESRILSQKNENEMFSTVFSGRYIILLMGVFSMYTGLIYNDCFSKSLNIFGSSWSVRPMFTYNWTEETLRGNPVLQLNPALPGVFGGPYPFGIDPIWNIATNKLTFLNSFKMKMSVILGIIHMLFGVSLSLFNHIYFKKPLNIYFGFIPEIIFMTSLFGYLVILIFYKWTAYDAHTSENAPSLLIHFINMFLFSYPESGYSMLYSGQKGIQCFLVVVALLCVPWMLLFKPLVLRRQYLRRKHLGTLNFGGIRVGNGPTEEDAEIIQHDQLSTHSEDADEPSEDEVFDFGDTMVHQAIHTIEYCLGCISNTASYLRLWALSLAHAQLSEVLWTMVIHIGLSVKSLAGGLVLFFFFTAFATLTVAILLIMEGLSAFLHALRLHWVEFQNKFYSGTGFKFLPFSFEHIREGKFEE

Substance: V-ATPase subunit V0a1 (from UniProt Q93050 1-837)
- binding: binds

From paper PMC9066121
